Data reported in PMC5834258, “Selective targeting of collagen IV in the cancer cell microenvironment reduces tumor burden” (Oncotarget, 2018).
Results are given in words; binding and its absence hold for the method and conditions named. Some binding calls cover weakened binding; strength is not graded here. Where a sequence is shown, tags or fusion partners need not be part of it.

T1: FLAG-GPBP-2/CERT fused to the binding domain of GAL4 (pGBT9-FLAG-GPBP-2) (UniProt Q9Y5P4)
T1 sequence: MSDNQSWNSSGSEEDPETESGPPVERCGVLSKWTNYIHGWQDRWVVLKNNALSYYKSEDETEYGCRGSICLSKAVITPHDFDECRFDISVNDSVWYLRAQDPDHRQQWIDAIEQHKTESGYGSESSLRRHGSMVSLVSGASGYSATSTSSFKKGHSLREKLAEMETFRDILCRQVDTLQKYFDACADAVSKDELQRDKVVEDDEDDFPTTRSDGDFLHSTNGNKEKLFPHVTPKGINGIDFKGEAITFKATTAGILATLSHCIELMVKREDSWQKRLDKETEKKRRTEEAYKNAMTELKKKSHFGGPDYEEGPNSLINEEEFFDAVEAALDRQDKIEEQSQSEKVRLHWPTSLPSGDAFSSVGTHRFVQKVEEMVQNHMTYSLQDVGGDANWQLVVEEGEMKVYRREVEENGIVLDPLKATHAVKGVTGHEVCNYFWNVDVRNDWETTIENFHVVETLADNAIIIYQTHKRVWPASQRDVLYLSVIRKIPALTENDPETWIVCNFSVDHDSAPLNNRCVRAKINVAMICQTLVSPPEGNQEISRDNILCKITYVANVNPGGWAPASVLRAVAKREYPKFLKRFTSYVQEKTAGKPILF

T2: polypeptide representing GIP130 (GPBP-interacting protein 130-kDa), residues 86-350, GAL4 fusion (UniProt Q4L180)
T2 sequence: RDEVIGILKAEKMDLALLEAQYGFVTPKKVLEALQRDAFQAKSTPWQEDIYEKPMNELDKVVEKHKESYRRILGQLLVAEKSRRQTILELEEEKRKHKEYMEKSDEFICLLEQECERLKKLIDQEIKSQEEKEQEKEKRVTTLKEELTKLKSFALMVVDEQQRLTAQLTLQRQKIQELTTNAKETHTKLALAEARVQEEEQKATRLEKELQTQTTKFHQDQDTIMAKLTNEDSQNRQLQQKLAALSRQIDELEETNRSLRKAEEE


Tests used:
[1] = target: T1, FLAG-GPBP-2/CERT fused to the binding domain of GAL4 (pGBT9-FLAG-GPBP-2); assay: two-hybrid; yeast two-hybrid, colony-lift filter assays (blue colour = +); GPBP-2/CERT as bait (pGBT9), GPBP and mutants in pGAD424
[2] = target: T2, polypeptide representing GIP130 (GPBP-interacting protein 130-kDa), residues 86-350, GAL4 fusion; assay: as above

binding [1] | binding [2] | Binder
binds | – | GPBP fused to the activation domain of GAL4 (pGAD424) (protein, UniProt Q9Y5P4 1-624) MSDNQSWNSSGSEEDPETESGPPVERCGVLSKWTNYIHGWQDRWVVLKNNALSYYKSEDETEYGCRGSICLSKAVITPHDFDECRFDISVNDSVWYLRAQDPDHRQQWIDAIEQHKTESGYGSESSLRRHGSMVSLVSGASGYSATSTSSFKKGHSLREKLAEMETFRDILCRQVDTLQKYFDACADAVSKDELQRDKVVEDDEDDFPTTRSDGDFLHSTNGNKEKLFPHVTPKGINGIDFKGEAITFKATTAGILATLSHCIELMVKREDSWQKRLDKETEKKRRTEEAYKNAMTELKKKSHFGGPDYEEGPNSLINEEEFFDAVEAALDRQDKIEEQSQSEKVRLHWPTSLPSGDAFSSVGTHRFVQKPYSRSSSMSSIDLVSASDDVHRFSSQVEEMVQNHMTYSLQDVGGDANWQLVVEEGEMKVYRREVEENGIVLDPLKATHAVKGVTGHEVCNYFWNVDVRNDWETTIENFHVVETLADNAIIIYQTHKRVWPASQRDVLYLSVIRKIPALTENDPETWIVCNFSVDHDSAPLNNRCVRAKINVAMICQTLVSPPEGNQEISRDNILCKITYVANVNPGGWAPASVLRAVAKREYPKFLKRFTSYVQEKTAGKPILF
no binding | binds | yeast recombinant FLAG-tagged GPBP-Ala264 (natural protein, human, UniProt Q9Y5P4 1-624, looked up, Mainly trimeric by SEC, with traces of higher and lower MW materials; source: yeast, purified) MSDNQSWNSSGSEEDPETESGPPVERCGVLSKWTNYIHGWQDRWVVLKNNALSYYKSEDETEYGCRGSICLSKAVITPHDFDECRFDISVNDSVWYLRAQDPDHRQQWIDAIEQHKTESGYGSESSLRRHGSMVSLVSGASGYSATSTSSFKKGHSLREKLAEMETFRDILCRQVDTLQKYFDACADAVSKDELQRDKVVEDDEDDFPTTRSDGDFLHSTNGNKEKLFPHVTPKGINGIDFKGEAITFKATTAGILATLSHCIALMVKREDSWQKRLDKETEKKRRTEEAYKNAMTELKKKSHFGGPDYEEGPNSLINEEEFFDAVEAALDRQDKIEEQSQSEKVRLHWPTSLPSGDAFSSVGTHRFVQKPYSRSSSMSSIDLVSASDDVHRFSSQVEEMVQNHMTYSLQDVGGDANWQLVVEEGEMKVYRREVEENGIVLDPLKATHAVKGVTGHEVCNYFWNVDVRNDWETTIENFHVVETLADNAIIIYQTHKRVWPASQRDVLYLSVIRKIPALTENDPETWIVCNFSVDHDSAPLNNRCVRAKINVAMICQTLVSPPEGNQEISRDNILCKITYVANVNPGGWAPASVLRAVAKREYPKFLKRFTSYVQEKTAGKPILF
